These are yes or no findings as the source states them, for the method shown. For some assays here: In cells and extracts the contact can be indirect.
T1: PIGT, subunit of the human GPI transamidase (GPI-T) (human) (UniProt Q969N2)
T1 sequence (chain, disulfide bond from C182 to PIGK C92): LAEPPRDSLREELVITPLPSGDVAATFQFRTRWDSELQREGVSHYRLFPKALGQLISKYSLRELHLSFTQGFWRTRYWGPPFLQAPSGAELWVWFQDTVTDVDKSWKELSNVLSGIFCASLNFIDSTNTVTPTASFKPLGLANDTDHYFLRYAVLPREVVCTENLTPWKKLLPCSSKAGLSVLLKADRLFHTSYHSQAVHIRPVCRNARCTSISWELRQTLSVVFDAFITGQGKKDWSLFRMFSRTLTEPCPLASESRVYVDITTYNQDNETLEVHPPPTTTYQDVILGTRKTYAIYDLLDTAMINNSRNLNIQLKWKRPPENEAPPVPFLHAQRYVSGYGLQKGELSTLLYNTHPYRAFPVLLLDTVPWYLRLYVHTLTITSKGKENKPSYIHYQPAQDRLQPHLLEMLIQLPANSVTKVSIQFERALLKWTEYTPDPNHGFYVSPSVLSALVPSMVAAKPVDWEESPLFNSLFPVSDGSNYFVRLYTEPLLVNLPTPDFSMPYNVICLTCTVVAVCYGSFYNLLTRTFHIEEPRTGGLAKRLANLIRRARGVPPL

Chains of the proteins cited; added tags and fusions are not shown. Lines headed by an entry give the natural chain unless they say otherwise; changes in a name come on top.
UniProt O43292: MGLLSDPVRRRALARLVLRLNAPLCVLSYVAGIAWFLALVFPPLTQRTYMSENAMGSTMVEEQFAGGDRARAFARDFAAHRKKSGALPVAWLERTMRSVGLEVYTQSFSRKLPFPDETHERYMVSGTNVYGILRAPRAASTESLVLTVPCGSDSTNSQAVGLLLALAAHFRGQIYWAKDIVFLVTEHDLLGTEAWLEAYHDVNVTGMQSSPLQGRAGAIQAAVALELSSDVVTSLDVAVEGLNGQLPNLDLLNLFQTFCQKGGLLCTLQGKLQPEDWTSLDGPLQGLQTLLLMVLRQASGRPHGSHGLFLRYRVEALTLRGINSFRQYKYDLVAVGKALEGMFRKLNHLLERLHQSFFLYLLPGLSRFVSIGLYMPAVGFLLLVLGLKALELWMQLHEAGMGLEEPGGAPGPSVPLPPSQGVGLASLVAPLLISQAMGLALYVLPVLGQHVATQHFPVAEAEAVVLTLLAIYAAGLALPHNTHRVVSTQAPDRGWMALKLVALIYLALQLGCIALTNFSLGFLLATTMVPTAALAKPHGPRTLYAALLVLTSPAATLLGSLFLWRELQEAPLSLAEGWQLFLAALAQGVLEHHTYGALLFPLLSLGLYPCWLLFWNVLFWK
UniProt Q96S52: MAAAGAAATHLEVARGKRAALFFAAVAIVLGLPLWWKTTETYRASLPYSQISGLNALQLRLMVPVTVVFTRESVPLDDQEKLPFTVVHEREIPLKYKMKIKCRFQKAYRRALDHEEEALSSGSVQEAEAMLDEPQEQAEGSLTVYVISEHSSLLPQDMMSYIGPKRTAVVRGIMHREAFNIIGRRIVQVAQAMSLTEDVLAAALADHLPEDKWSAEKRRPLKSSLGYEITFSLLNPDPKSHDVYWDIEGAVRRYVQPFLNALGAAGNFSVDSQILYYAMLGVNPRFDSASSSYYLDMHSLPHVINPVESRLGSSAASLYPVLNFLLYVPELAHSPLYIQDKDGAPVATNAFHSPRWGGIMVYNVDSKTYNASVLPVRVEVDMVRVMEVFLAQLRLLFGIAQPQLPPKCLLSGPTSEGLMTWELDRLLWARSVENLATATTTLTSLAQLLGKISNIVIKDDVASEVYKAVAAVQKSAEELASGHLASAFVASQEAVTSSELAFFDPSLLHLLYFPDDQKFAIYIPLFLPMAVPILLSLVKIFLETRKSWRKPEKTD
UniProt Q9H490: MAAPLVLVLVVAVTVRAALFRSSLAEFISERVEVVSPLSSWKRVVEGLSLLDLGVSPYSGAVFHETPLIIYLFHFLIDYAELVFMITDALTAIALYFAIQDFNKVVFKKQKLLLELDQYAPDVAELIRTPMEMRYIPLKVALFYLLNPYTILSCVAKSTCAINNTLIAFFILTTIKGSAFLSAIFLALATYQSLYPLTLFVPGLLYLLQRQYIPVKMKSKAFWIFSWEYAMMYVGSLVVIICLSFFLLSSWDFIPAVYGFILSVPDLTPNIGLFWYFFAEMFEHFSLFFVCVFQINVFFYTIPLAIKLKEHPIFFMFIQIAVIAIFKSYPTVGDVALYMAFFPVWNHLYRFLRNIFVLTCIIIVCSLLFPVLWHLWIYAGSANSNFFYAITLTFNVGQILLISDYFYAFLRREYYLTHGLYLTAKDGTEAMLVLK


Experiments:
[1] = biological target: human GPI transamidase complex (GPI-T), equimolar heteropentamer of GPAA1, PIGK, PIGS, PIGT and PIGU (human) (UniProt O43292+Q92643+Q96S52+Q969N2+Q9H490); assay: cryo-EM structure; single-particle cryo-EM of the purified GPI-T complex in 0.1% digitonin, 150 mM NaCl, 20 mM Tris HCl pH 8.0; 2.53 Å; five subunits with 1:1 stoichiometry; both purified
[2] = biological target: T1, PIGT, subunit of the human GPI transamidase (GPI-T) (human); assay: condition: only with the reducing agent β-mercaptoethanol on SDS-PAGE; cross-linking; as a2, but SDS-PAGE in the presence of the reducing agent β-mercaptoethanol

binding [1]	Molecule	binding [2]
no binding	human GPI transamidase complex (GPI-T), equimolar heteropentamer of GPAA1, PIGK, PIGS, PIGT and PIGU (from UniProt O43292-1 2-621; Q92643-1 28-395; Q96S52-1 2-555; Q969N2-1 22-578; Q9H490-1 2-435)	
	PIGK, subunit of the human GPI transamidase (GPI-T) (enzyme, disulfide bond from C92 to PIGT C182, PIGK, human, Genbank ID NP_005473.1; The HA tag follows the TGP tag; also called Gpi8p (yeast name); source: Expi293 cells co-transfected with five plasmids carrying all subunits; purified as the GPI-T complex (Strep-Tactin, Ni-NTA, gel filtration) in digitonin) SHIEDQAEQFFRSGHTNNWAVLVCTSRFWFNYRHVANTLSVYRSVKRLGIPDSHIVLMLADDMACNPRNPKPATVFSHKNMELNVYGDDVEVDYRSYEVTVENFLRVLTGRIPPSTPRSKRLLSDDRSNILIYMTGHGGNGFLKFQDSEEITNIELADAFEQMWQKRRYNELLFIIDTCQGASMYERFYSPNIMALASSQVGEDSLSHQPDPAIGVHLMDRYTFYVLEFLEEINPASQTNMNDLFQVCPKSLCVSTPGHRTDLFQRDPKNVLITDFFGSVRKVEITTETIKLQQDSEIMESSYKEDQMDEKLMEPLKYAEQLPVAQIIHQKPKLKDWHPPGGFILGLWALIIMVFFKTYGIKHMKFIF	no binding

Reference: article PMC9098846, “Molecular insights into biogenesis of glycosylphosphatidylinositol anchor proteins” (Nature Communications, 2022)
